From patent publication US8552002B2 (Novartis AG, priority 2004, dated 2013)
Structures were worked out from names or drawings and are uncertain.

Amino acid sequences for entries named in this document (tags omitted). A change or cut given only in a name is not applied to a line headed by its entry. Residues count along the entry.
UniProt P00519, 28-1130 E255V limits assumed: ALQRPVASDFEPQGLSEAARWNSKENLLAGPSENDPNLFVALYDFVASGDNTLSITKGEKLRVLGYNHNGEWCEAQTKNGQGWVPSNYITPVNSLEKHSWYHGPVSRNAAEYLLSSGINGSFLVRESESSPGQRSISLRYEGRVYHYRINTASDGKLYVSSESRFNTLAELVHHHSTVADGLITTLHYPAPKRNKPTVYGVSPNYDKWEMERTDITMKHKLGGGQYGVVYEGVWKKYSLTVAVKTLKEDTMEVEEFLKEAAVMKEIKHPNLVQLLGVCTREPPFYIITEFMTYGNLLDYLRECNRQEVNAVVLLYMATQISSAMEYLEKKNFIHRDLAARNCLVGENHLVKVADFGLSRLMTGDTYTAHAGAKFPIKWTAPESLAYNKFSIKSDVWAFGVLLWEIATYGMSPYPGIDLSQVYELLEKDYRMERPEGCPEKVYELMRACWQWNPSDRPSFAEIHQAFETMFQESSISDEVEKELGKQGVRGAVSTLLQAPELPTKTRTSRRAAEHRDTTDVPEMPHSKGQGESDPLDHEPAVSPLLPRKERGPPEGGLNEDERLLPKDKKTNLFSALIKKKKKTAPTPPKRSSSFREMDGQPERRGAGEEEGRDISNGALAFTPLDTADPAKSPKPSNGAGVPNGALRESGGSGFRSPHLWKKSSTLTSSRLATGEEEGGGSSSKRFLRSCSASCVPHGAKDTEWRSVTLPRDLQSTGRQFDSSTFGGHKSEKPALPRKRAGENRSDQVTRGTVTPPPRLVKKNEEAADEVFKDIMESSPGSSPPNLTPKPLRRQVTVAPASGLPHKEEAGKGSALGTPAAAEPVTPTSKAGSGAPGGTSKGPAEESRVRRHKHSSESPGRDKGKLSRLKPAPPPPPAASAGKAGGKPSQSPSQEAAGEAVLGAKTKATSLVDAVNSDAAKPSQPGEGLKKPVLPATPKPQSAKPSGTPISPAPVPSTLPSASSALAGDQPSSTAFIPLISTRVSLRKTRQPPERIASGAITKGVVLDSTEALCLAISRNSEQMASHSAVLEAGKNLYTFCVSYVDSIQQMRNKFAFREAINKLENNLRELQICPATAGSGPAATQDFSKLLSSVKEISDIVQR
UniProt P00519, 28-1130 F317L limits assumed: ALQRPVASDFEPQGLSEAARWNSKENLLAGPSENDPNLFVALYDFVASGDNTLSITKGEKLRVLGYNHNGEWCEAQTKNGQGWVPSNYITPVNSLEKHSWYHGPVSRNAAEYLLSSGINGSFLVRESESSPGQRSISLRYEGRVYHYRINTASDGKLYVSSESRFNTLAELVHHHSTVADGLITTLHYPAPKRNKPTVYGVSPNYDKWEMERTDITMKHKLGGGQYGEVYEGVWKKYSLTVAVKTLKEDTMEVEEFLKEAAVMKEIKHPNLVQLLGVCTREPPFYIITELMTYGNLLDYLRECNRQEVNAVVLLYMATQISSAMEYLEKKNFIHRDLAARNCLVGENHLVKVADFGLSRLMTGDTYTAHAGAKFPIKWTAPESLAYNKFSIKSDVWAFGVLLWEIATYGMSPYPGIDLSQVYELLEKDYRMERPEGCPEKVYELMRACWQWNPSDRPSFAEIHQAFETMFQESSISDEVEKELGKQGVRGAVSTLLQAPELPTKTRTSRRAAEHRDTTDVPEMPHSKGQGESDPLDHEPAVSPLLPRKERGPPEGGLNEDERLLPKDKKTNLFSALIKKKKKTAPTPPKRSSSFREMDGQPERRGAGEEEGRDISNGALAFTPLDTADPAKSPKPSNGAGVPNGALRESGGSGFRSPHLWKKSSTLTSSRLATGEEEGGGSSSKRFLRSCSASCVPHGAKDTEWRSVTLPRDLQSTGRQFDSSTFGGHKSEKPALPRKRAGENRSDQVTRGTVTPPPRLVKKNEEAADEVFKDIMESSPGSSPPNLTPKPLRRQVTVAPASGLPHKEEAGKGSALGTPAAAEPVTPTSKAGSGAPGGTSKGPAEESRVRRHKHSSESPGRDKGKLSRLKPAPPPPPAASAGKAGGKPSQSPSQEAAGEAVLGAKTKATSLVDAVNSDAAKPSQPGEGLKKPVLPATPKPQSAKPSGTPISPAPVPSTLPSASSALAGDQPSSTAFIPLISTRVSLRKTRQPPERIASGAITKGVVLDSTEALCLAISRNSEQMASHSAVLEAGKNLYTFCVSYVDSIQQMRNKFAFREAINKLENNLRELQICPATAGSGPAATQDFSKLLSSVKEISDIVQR
UniProt P00519, 28-1130 G250E limits assumed: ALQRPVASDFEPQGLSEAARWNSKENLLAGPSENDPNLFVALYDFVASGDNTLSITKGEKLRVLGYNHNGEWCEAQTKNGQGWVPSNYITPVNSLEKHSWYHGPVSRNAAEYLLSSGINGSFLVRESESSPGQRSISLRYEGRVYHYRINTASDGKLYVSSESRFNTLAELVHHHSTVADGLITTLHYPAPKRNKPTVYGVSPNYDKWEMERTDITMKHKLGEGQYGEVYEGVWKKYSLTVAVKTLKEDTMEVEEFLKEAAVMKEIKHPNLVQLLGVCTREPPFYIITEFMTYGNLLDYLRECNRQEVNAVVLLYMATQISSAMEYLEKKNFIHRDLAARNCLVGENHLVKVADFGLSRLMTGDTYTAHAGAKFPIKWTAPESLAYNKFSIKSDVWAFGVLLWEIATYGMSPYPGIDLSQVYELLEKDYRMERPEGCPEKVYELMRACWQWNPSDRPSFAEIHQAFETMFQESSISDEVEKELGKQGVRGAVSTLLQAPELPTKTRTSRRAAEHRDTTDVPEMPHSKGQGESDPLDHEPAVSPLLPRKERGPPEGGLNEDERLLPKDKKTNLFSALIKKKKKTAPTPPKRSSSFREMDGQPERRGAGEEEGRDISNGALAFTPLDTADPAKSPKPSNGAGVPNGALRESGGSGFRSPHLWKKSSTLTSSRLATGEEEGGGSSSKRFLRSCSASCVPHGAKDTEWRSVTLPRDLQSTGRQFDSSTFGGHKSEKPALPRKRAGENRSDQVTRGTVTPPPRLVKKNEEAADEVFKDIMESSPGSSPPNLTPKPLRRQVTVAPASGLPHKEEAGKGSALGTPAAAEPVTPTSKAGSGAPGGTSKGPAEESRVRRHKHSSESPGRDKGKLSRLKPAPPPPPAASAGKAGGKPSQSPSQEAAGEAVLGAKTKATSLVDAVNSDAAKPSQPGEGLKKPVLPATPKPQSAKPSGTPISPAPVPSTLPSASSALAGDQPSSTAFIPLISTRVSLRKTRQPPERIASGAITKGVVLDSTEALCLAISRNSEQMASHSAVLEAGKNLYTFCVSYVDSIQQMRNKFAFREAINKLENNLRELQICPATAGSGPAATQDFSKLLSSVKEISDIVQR
UniProt P00519, 28-1130 M351T limits assumed: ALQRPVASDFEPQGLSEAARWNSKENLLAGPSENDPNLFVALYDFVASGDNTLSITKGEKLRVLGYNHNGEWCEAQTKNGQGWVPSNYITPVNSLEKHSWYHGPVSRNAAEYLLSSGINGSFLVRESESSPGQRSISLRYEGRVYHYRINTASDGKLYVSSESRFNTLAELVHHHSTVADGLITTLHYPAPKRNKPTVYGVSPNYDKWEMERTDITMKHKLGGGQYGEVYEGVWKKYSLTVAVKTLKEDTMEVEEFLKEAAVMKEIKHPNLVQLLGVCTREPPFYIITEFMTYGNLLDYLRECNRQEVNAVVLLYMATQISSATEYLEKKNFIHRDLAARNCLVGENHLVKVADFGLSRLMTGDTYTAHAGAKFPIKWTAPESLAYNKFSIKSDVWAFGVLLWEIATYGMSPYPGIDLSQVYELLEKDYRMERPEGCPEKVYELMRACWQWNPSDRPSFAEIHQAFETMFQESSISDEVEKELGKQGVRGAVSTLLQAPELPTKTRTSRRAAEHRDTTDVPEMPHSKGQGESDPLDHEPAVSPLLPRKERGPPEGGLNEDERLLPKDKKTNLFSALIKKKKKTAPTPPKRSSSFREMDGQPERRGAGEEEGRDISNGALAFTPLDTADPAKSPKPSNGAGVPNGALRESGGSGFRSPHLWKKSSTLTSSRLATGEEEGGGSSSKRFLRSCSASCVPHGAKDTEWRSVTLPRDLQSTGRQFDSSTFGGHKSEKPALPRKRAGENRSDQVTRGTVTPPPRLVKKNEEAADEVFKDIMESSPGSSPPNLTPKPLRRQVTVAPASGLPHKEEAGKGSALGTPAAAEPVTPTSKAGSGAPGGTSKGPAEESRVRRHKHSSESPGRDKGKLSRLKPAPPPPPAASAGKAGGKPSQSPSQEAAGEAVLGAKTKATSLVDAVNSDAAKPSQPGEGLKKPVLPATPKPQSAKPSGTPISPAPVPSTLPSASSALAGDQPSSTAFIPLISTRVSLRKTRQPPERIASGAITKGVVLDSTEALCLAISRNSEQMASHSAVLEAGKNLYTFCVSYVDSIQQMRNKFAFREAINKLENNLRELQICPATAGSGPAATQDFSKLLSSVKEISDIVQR
UniProt P00519, 28-1130 T315I limits assumed: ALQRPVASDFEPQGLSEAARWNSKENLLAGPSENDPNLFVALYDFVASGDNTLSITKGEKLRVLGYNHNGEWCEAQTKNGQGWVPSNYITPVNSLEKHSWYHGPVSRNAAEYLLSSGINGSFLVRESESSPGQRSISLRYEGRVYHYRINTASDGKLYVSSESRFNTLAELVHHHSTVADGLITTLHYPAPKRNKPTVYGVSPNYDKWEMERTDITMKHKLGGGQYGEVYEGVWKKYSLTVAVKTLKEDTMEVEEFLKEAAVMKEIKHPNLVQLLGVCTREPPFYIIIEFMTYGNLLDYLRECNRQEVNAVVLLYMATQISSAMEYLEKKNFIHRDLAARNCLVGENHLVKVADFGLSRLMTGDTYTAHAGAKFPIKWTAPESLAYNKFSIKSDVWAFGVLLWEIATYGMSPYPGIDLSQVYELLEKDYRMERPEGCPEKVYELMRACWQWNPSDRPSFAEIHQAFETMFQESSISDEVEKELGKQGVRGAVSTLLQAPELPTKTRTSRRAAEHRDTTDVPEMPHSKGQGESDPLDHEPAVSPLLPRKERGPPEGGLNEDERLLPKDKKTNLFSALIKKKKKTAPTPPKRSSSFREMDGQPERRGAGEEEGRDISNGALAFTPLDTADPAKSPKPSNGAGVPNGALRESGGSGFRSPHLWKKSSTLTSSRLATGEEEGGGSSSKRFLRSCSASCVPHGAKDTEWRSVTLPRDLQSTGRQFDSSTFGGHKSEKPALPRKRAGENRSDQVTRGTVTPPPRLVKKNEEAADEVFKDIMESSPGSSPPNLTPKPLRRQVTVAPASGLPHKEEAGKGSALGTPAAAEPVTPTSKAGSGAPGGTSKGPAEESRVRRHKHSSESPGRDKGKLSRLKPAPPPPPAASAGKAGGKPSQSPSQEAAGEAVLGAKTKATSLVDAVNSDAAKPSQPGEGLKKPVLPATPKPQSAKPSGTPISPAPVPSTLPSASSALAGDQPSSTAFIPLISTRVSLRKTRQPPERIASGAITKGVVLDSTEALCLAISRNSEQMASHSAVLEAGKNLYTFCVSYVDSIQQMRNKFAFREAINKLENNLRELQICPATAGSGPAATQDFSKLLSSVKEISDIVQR

Experiments:
[1] = biological target: M351T Bcr-abl (Homo sapiens, UniProt P00519, M351T); assay: Antiproliferative effect on Ba/F3 cells expressing mutant Bcr-abl M351T; conditions: read-out: IC50 for M351T Bcr-abl; Ba/F3 cell proliferation
Method: (§1) Compounds of the invention are tested for their antiproliferative effect on Ba/F3 cells expressing either wild type or the mutant forms of BCR-Abl (G250E, E255V, T315I, F317L, M351T) that confers resistance or diminished sensitivity to STI571. The antiproliferative effect of these compounds on the mutant-BCR-Abl expressing cells and on the non transformed cells were tested at 10, 3.3, 1.1 and 0.37 μM as described above (in media lacking IL3). The IC50 values of the compounds lacking toxicity on the untransformed cells were determined from the dose response curves obtained as describe above.

[2] = biological target: T315I BCR-Abl (Homo sapiens, UniProt P00519, T315I); assay: Antiproliferative effect on Ba/F3 cells expressing mutant Bcr-abl T315I; conditions: read-out: IC50 for T315J Bcr-abl; Ba/F3 cell proliferation
Method: as §1

[3] = biological target: E255V Bcr-abl (Homo sapiens, UniProt P00519, E255V); assay: Antiproliferative effect on Ba/F3 cells expressing mutant Bcr-abl E255V; conditions: read-out: IC50 for E255V Bcr-abl; Ba/F3 cell proliferation
Method: as §1

[4] = biological target: F317L Bcr-abl (Homo sapiens, UniProt P00519, F317L); assay: Antiproliferative effect on Ba/F3 cells expressing mutant Bcr-abl F317L; conditions: read-out: IC50 for F317L Bcr-abl; Ba/F3 cell proliferation
Method: as §1

[5] = biological target: G250E Bcr-abl (Homo sapiens, UniProt P00519, G250E); assay: Antiproliferative effect on Ba/F3 cells expressing mutant Bcr-abl G250E; conditions: read-out: IC50 for G250E Bcr-abl; Ba/F3 cell proliferation
Method: as §1

[6] = biological target: wild type Bcr-abl (Homo sapiens, UniProt P00519); assay: Antiproliferative effect on cells expressing wild type Bcr-abl; conditions: read-out: IC50 for wild type Bcr-abl; cell proliferation
Method: 32D-p210 cells are plated into 96 well TC plates at a density of 15,000 cells per well. 50 μL of two fold serial dilutions of the test compound (Cmax is 40 μM) are added to each well (STI571 is included as a positive control). After incubating the cells for 48 hours at 37° C., 5% CO2, 15 μL of MTT (Promega) is added to each well and the cells are incubated for an additional 5 hours. The optical density at 570 nm is quantified spectrophotometrically and IC50 values, the concentration of compound required for 50% inhibition, determined from a dose response curve.
as §1

## CC(=O)Nc1cccc(Nc2cc(N(C)C(=O)Nc3cc(NC(=O)c4cccc(C(F)(F)F)c4)ccc3C)ncn2)c1
[1]
  IC50: < 0.5 nM
[2]
  IC50: 41 nM
[3]
  IC50: 44 nM
[4]
  IC50: < 0.5 nM
[5]
  IC50: 38 nM
[6]
  IC50: < 0.5 nM
